Assay results as given in PubChem BioAssay AID504327 (National Center for Advancing Translational Sciences (NCATS), 2011).
Screen size: about 390,000 compounds; about 820 (0.21%) were called active. The inconclusive results got no clear call from the source; some entries with a clear call stand among them for comparison. The call rests on the fitted dose curve; in most records, active means well fitted inhibition curve with a large enough effect; inconclusive means small, poorly fitted or top-dose-only effect, or another doubt; inactive means no such curve, though single readings can be large or run the other way. Potencies beside an inconclusive call are fits to weak or partial responses and may not hold up.

By UniProt entry, the sequences of proteins in these tests, tags left out.
UniProt Q92830, whole entry, looked up: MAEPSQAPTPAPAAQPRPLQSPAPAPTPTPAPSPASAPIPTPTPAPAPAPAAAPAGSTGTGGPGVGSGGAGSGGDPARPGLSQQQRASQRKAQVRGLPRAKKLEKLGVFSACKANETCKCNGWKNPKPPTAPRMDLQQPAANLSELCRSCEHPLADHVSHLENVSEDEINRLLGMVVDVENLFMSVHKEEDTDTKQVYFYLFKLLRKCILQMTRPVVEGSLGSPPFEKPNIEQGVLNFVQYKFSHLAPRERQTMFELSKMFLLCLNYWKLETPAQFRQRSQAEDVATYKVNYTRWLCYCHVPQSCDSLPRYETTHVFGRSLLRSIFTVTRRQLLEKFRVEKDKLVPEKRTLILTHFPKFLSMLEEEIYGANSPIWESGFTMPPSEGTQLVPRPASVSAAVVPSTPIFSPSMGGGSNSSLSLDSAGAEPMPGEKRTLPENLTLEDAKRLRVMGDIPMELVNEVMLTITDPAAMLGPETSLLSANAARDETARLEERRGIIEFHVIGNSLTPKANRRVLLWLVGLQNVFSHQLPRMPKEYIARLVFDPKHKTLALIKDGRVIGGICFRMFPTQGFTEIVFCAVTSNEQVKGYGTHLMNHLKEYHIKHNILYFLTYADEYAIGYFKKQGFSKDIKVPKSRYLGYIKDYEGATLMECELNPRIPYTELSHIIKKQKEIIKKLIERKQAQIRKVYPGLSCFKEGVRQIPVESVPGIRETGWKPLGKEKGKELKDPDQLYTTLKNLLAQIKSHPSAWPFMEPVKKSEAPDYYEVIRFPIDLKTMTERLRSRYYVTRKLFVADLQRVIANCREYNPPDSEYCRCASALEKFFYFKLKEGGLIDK

molecular target: Histone acetyltransferase KAT2A (Homo sapiens) (UniProt Q92830); assay: qHTS Assay for Inhibitors of GCN5L2; conditions: GCN5L2 HAT assay, ThioGlo1 CoA-SH fluorescence; activity change, negative = inhibition: at 58.9 µM (top of the series) unless noted
How it was run: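 qHTS, 1536-well. 20nM enzyme, pH 7.5 HEPES/EDTA/Tween-20 buffer; 15 min compound preinc., RT. Start: 75uM H3(1-25), 70uM AcCoA, 50uM ThioGlo1. Read Ex340/Em540 at t=0 (autofluorescence flag) and t=20 min.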
On the % scale 0 is the no-effect control and ±100 the full control effect; potency means the concentration at half of the fitted maximal effect.

| Structure (SMILES) | Potency | activity change, negative = inhibition |
| --- | --- | --- |
| COc1ccc(CCC(=O)NCC(c2ccco2)N2CCc3ccccc32)cc1 (configuration not stated) | inconclusive: 35.5 µM [inhibitor, single point] | – |
| Cc1ccc(C(=O)Nc2cc(-c3nc4ncccc4o3)ccc2C)c(C)c1 | – | inactive: -9.05% |
| COCc1nn2cc(-c3ccc(C)cc3)nc2s1 | – | inactive: -7.03% |
| Cc1cccn2c(=O)c3cc(C(=O)NC4CCCC4)sc3nc12 | inconclusive: 5.62 µM [inhibitor, full curve, poor fit] | – |
| C/C(=N\NC(=S)NCc1ccccc1)c1ccccc1 | – | inactive: -5.69% |
| O=c1c(-c2ccc(Cl)cc2)nc2cnc(N3CCNCC3)nc2n1Cc1cccs1 | inconclusive: 31.6 µM [inhibitor, single point] | – |
| O=C(O)c1ccccc1S(=O)(=O)NCC(O)COc1ccc(Br)cc1 (configuration not stated) | inconclusive: 7.08 µM [inhibitor, single point] | – |
| Cc1cc2c(cc1NC(=O)c1ccccc1C)n(C)c(=O)c(=O)n2C | – | inactive: -15% |
| Cc1ccccc1N(CC(=O)N/N=C/c1ccc(N(C)C)cc1)C(=O)c1ccccc1 | inconclusive: 39.8 µM [inhibitor, single point] | – |
| O=CN1CCN(C(=S)NC(=O)c2ccc(Cl)cc2)CC1 | inconclusive: 3.55 µM [inhibitor, full curve, poor fit] | – |
| COc1cc(-c2nnc(SCCOc3ccc(Cl)cc3)o2)cc(OC)c1OC | – | inactive: -3.79% |
| CC12CCC(C(=O)O)(C/C1=N\O)C2(C)C (configuration not stated) | inconclusive: 12.6 µM [inhibitor, partial curve] | – |
| COc1ccccc1-c1nn2c(-c3ccc(C(C)(C)C)cc3)nnc2s1 | – | inactive: -1.29% |
| CCCCC[C@@H]1C=C(C(=O)O)[C@H](c2ccc(Br)cc2)N1S(=O)(=O)c1ccc(C)cc1 | inconclusive: 31.6 µM [inhibitor, single point] | – |
| CCN(CC(=O)Nc1c(F)cccc1F)C(=O)CCCc1c[nH]c2ccccc12 | inconclusive: 11.2 µM [inhibitor, partial curve] | – |
| COc1cc(NS(=O)(=O)c2ccc(NC(=O)c3ccc(C)o3)cc2)nc(OC)n1 | inconclusive: 39.8 µM [inhibitor, single point] | – |
| O=S(=O)(NNc1cccc(Cl)n1)c1ccc(Cl)cc1 | inconclusive: 11.2 µM [inhibitor, partial curve] | – |
| COc1ccc(C(=O)NC(C)CCCC(C)(C)O)cc1OC1CCN(C(C)=O)CC1 (configuration not stated) | inconclusive: 0.398 µM [inhibitor, partial curve, poor fit] | – |
| CC(C)N1CC(O)=C(c2nc3ccccc3c(=O)[nH]2)C1=N | inconclusive: 15.8 µM [inhibitor, partial curve] | – |
| Cc1cc(C(=O)N/N=C/c2c(C)[nH]c3ccccc23)n[nH]1 | inconclusive: 3.16 µM [inhibitor, partial curve] | – |
| CCc1nc(C)ccc1OCC(=O)N(CC)CC | inconclusive: 39.8 µM [inhibitor, single point] | – |
| Cc1cc(N2CCN(c3nc4ccccc4s3)CC2)n2ncnc2n1 | inconclusive: 39.8 µM [inhibitor, single point] | – |
| Cc1oncc1-c1cn2ccccc2n1 | – | inactive: -2.65% |

| Structure (SMILES) | Potency | activity change, negative = inhibition |
| --- | --- | --- |
| Cc1ccc(NC(=O)c2cc(=O)c3ccccc3o2)cc1 | inconclusive: 17.8 µM [inhibitor, single point] | – |
| CCCN(C(=O)c1cccc(S(=O)(=O)N2CCCc3ccccc32)c1)C1CCS(=O)(=O)C1 (configuration not stated) | inconclusive: 0.708 µM [inhibitor, full curve, poor fit] | – |
| CCOC(=O)c1c(NC(=O)NC(C)(C)C)sc2c1CCN(C)C2 | inconclusive: 39.8 µM [inhibitor, single point] | – |
| O=C(OCc1ccc([N+](=O)[O-])cc1)c1cc(S(=O)(=O)N2CCCCC2)ccc1N1CCOCC1 | inconclusive: 22.4 µM [inhibitor, partial curve, poor fit] | – |
| COc1ccc(-c2cc(=O)c3ccccc3o2)cc1OC | active: 35.5 µM | – |
| O=c1oc2c(O)cccc2cc1-c1nc2ccccc2[nH]1 | inconclusive: 3.55 µM [inhibitor, full curve, poor fit] | – |
| COc1ccc(/C=C(/NC(=O)c2ccccc2)c2nc3ccccc3[nH]2)cc1OC | inconclusive: 39.8 µM [inhibitor, single point] | – |
| O=C1c2ccccc2-c2nc3ccccc3nc21 | – | inactive: -1.39% |
| CCOc1ccc(/C=C/C(=O)Nc2sc3c(c2C(=O)OC)C(C(=O)OC)CC3)cc1 (configuration not stated) | inconclusive: 39.8 µM [inhibitor, single point] | – |
| CCc1cccc(-n2c(=O)c3cccnc3n2CC(=O)NCc2ccccc2)c1 | – | inactive: -2.7% |
| COc1ccc([N+](=O)[O-])cc1C1NN=C(c2ccccc2O)S1 (configuration not stated) | inconclusive: 0.708 µM [inhibitor, full curve] | – |
| C/C(CC(=O)Nc1ccc(Cl)cc1Cl)=N\NC(N)=S | – | inactive: -5.18% |
| CCCCN(C(=O)Cn1ncc(Cl)c(Cl)c1=O)c1c(N)n(CC(C)C)c(=O)[nH]c1=O | inconclusive: 39.8 µM [inhibitor, single point] | – |
| O=c1cc(-c2cc(O)c(O)c([C@@H]3O[C@H](CO)[C@@H](O)[C@H](O)[C@H]3O)c2)oc2cc(O[C@@H]3O[C@H](CO)[C@@H](O)[C@H](O)[C@H]3O)cc(O)c12 | – | inactive: -15.1% |
| COC(=O)c1ccc(C(=O)OC)c(NC(=O)Nc2ccc3c(c2)OCO3)c1 | inconclusive: 25.1 µM [inhibitor, single point] | – |
| O=C1NC(=Nc2ccc3ccccc3c2)S/C1=C/c1ccco1 | inconclusive: 39.8 µM [inhibitor, single point] | – |
| Cc1cc(NS(=O)(=O)c2ccc(NC(=O)/C=C/c3cccc(Cl)c3)cc2)no1 | inconclusive: 8.91 µM [inhibitor, partial curve] | – |
| Cc1ccc(C(O)(c2ccccc2)c2ccccc2C(C)N(C)C)c(C)c1 (configuration not stated) | inconclusive: 0.631 µM [inhibitor, full curve, poor fit] | – |
| COc1ccc(-c2cc(=O)oc3cc(OCC(=O)N4C[C@H]5C[C@@H](C4)c4cccc(=O)n4C5)ccc23)cc1 | inconclusive: 8.91 µM [inhibitor, single point] | – |
| Cc1ccc(C)c(OCC(=O)Nc2cc(NC(=O)COc3cc(C)ccc3C)cc(C(=O)O)c2)c1 | inconclusive: 39.8 µM [inhibitor, single point] | – |
| COc1ccccc1NC(=O)CSc1nc(O)cc(=O)n1-c1ccccc1OC | inconclusive: 39.8 µM [inhibitor, single point] | – |
| COc1ccc(C(=O)Nc2ccc(/C(C)=N/NC(=O)c3ccncc3)cc2)cc1 | – | inactive: -6.29% |
| O=C(c1ccccc1Br)N1CCc2c([nH]c3ccccc23)C1 | inconclusive: 0.141 µM [inhibitor, full curve, poor fit] | – |

Record cards, as listed above:
`COc1ccc([N+](=O)[O-])cc1C1NN=C(c2ccccc2O)S1` (configuration not stated) is entered as Potency: inconclusive: 0.708 µM [inhibitor, full curve]
`COc1ccc(-c2cc(=O)c3ccccc3o2)cc1OC` is entered as Potency: active: 35.5 µM

Additional compounds

| Structure (SMILES) | Potency | activity change, negative = inhibition |
| --- | --- | --- |
| O=C1C=C(c2ccc3c(c2)OCO3)C[C@@H](c2ccc3c(c2)OCO3)C1 | – | inactive: 0.0356% |
| COc1ccc(C(=O)NCCc2nnc3ccc(SCC(=O)NCc4ccc(F)cc4)nn23)cc1 | inconclusive: 39.8 µM [inhibitor, partial curve, poor fit] | – |
| COc1cccc(-n2c(-c3ccc(Cl)cc3)cc3c2CC(C)(C)CC3=O)c1 | – | inactive: -2.47% |
| CC(C(=O)O)N1C(=O)/C(=C/C=C/c2ccco2)SC1=S (configuration not stated) | active: 7.94 µM | – |
| COCCCn1c(SCC(=O)OC2CCCCC2)nnc1-c1cccs1 | – | inactive: -1.05% |
| Cc1ccc(CS(=O)(=O)Cc2ccc(C(=O)NCC3CCCO3)o2)cc1 (configuration not stated) | inconclusive: 7.08 µM [inhibitor, full curve] | – |
| Cc1ccc(NC(=O)C/C(N)=N/O)cc1Cl | inconclusive: 4.47 µM [inhibitor, partial curve] | – |
| CCn1cc(C(=O)N2CCCC(C(=O)c3ccc4ccccc4c3)C2)cn1 (configuration not stated) | – | inactive: -1.37% |
| CC(C)c1ccc(N)c(S(=O)(=O)O)c1 | inconclusive: 39.8 µM [inhibitor, single point] | – |
| CCCCC(=O)NNC(=S)NC(=O)c1ccc([N+](=O)[O-])cc1 | inconclusive: 17.8 µM [inhibitor, partial curve] | – |
| N#Cc1c(N)n(-c2cccc(C(=O)O)c2)c2nc3ccccc3nc12 | inconclusive: 14.1 µM [inhibitor, partial curve] | – |
| CCC1(c2ccccc2)NC(=O)N(CC(=O)NCCN2C(=O)S/C(=C\c3cccnc3)C2=O)C1=O (configuration not stated) | inconclusive: 35.5 µM [inhibitor, single point] | – |
| CCc1ccccc1NC(=O)c1cc([N+](=O)[O-])ccc1N1CCOCC1 | inconclusive: 1.58 µM [inhibitor, full curve, poor fit] | – |
| O=C(N/C(=C/c1cccs1)c1nc2ccccc2[nH]1)c1ccccc1 | inconclusive: 0.1 µM [inhibitor, full curve, poor fit] | – |
| Cc1cc(/C=c2/sc3nc4ccccc4n3c2=O)c(C)n1-c1ccccn1 | – | inactive: -8.54% |
| Fc1ccccc1COc1ccc(Br)cc1CNCc1cccnc1 | inconclusive: 22.4 µM [inhibitor, partial curve] | – |
| CC(=O)NC(Cc1cccc(F)c1)C(=O)NC1CCN(C(=O)c2ccc(C)cc2)CC1 (configuration not stated) | inconclusive: 39.8 µM [inhibitor, single point] | – |
| CC1CCCN(CCCNC(=O)c2coc3nc4ccccc4nc23)C1 (configuration not stated) | inconclusive: 39.8 µM [inhibitor, single point] | – |
| OC1(c2ccc3ccccc3c2)CCN(Cc2ccccc2)C1 (configuration not stated) | – | inactive: -6.34% |
| COc1ccc(CC(=O)NC2CCS(=O)(=O)C2)cc1 (configuration not stated) | inconclusive: 3.55 µM [inhibitor, single point] | – |
| COC(=O)c1cc(NS(=O)(=O)c2ccc(N3CCCCC3)c([N+](=O)[O-])c2)cc(C(=O)OC)c1 | inconclusive: 10 µM [inhibitor, partial curve, poor fit] | – |

Two of the compounds above, bar-delimited:
Structure (SMILES) | Potency | activity change, negative = inhibition
COCCCn1c(SCC(=O)OC2CCCCC2)nnc1-c1cccs1 | – | inactive: -1.05%
COC(=O)c1cc(NS(=O)(=O)c2ccc(N3CCCCC3)c([N+](=O)[O-])c2)cc(C(=O)OC)c1 | inconclusive: 10 µM [inhibitor, partial curve, poor fit] | –

In a second layout: 2 of the compounds above.
Structure (SMILES)	Potency	activity change, negative = inhibition
CCCCC(=O)NNC(=S)NC(=O)c1ccc([N+](=O)[O-])cc1	inconclusive: 17.8 µM [inhibitor, partial curve]	–
N#Cc1c(N)n(-c2cccc(C(=O)O)c2)c2nc3ccccc3nc12	inconclusive: 14.1 µM [inhibitor, partial curve]	–
